Assay results published in patent US9309288B2 (ADVANCED ACCELERATOR APPLICATIONS, priority 2005, dated 2016).

Test: general procedure: Fmoc solid-phase peptide synthesis; Novasyn TGA resin (substitution 0.29 mmol g^-1); HBTU/HOBt/DIPEA; cyclization with PyBop/HOBt/DIPEA
Conditions: whole synthesis, overall, scale of the general procedure 0.25 mmol

Substance	isolated yield [%]
SEQ ID NO: 2 (MDDPGRNPHKGPAT)	54
SEQ ID NO: 3 (RNPHKGPAT)	58
